This is an account of results in PMC4979867, “Reconstitution of the membrane protein OmpF into biomimetic block copolymer–phospholipid hybrid membranes” (Beilstein Journal of Nanotechnology, 2016).

No constants are given. Whether binding was seen depends on the method and setting.

This assay addresses outer membrane protein OmpF from Escherichia coli (Escherichia coli) (UniProt P02931). The experiment in a line: SDS-PAGE of the boiled sample; purified OmpF in 1% octyl-POE, sample boiled before SDS-PAGE; both purified.

B1: outer membrane protein OmpF from Escherichia coli (natural protein, UniProt P02931 23-362, looked up)
chain: AEIYNKDGNKVDLYGKAVGLHYFSKGNGENSYGGNGDMTYARLGFKGETQINSDLTGYGQWEYNFQGNNSEGADAQTGNKTRLAFAGLKYADVGSFDYGRNYGVVYDALGYTDMLPEFGGDTAYSDDFFVGRVGGVATYRNSNFFGLVDGLNFAVQYLGKNERDTARRSNGDGVGGSISYEYEGFGIVGAYGAADRTNLQEAQPLGNGKKAEQWATGLKYDANNIYLAANYGETRNATPITNKFTNTSGFANKTQDVLLVAQYQFDFGLRPSIAYTKSKAKDVEGIGDVDLVNYFEVGATYYFNKNMSTYVDYIINQIDSDNKLGVGSDDTVAVGIVYQF
notes: Outer membrane porin OmpF, Escherichia coli, native protein from strain B^E BL21(DE3)omp6 (lacks LamB and OmpC); no residues or identifiers printed; The protein here comes from an E. coli B strain, whose OmpF may differ from it at a few positions; also called native OmpF protein
B1: the binding result is “no binding (condition: boiled sample)”.
